From PMC5731909 come the findings set out here.

Chains of the proteins cited; added tags and fusions are not shown. Residues count along the entry.
UniProt Q8BTG7: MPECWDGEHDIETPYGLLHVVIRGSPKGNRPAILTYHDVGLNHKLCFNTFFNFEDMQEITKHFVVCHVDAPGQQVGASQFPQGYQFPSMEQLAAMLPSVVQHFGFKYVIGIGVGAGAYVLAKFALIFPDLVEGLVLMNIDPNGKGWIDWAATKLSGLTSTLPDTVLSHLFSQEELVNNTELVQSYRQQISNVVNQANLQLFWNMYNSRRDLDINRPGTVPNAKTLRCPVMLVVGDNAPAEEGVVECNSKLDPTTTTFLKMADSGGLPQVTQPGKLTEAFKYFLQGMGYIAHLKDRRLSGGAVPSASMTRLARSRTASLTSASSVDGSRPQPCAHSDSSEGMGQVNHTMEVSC
UniProt Q3UUI3, residues 28-230: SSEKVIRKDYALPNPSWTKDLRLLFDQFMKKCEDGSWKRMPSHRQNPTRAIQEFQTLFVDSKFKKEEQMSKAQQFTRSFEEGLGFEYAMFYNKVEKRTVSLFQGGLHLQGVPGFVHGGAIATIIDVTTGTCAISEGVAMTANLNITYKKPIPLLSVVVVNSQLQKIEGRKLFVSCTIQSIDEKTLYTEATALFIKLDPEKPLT

Results are given in words; binding and its absence hold for the method and conditions named. In cells and extracts the contact can be indirect. Some entries that bind do so weakly or less than the wild type.

For assay [1], the target named is N-Myc downstream-regulated gene 4 (NDRG4) (mouse (endogenous in C2C12)) (UniProt Q8BTG7). Put plainly: co-IP; lysate of C2C12 cells differentiated for 3 days; immunoprecipitated with anti-NDRG4 antibody or control IgG overnight at 4°C, Protein A + G agarose beads, five washes with lysis buffer; blotted with PTEN and CTMP antibodies.
In assay [2] the target is carboxyl-terminal modulator protein (CTMP) (mouse (endogenous in C2C12)) (UniProt Q3UUI3). Description: co-IP; lysates of NDRG4-knockdown (siNDRG4) and control C2C12 cells; immunoprecipitated with anti-CTMP antibody or control IgG; blotted with anti-pAkt, anti-NDRG4 and anti-CTMP antibodies.

As to “carboxyl-terminal modulator protein (CTMP) (from UniProt Q3UUI3 28-230)”, in assay [1], the binding result is recorded as “binds”.

For the substance “N-Myc downstream-regulated gene 4 (NDRG4) (from UniProt Q8BTG7 1-352)”, the binding result in assay [2] is listed as “binds”.
